PubChem BioAssay AID743121 | NCATS – 2013
The whole screen tested about 26,000 reagents; this is an unselected part. Of all reagents, 167 (0.63%) are marked active. 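Calls are per gene from RSA p-values that are not deposited; an individual active-marked siRNA can sensitise only weakly.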 Not all columns of the deposit are shown.

Test: 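Knock-downs that sensitise breast cancer cells to camptothecin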 (primary screen)
Cell system: MDA-MB-231 cells, a human breast cancer line
Reagent: single siRNA against human genes, 20 nM siRNA (0.8 pmol per well)
Timing: 120 h (drug added 48 h after transfection, read 72 h later)
Challenge: camptothecin 20 nM (about EC30) for 72 h; vehicle 0.1% DMSO in parallel plates
Read-out: 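Cell viability by ATP luminescence (CellTiter-Glo) as % of non-targeting siRNA wells, and the log2 ratio of viability without drug over viability with camptothecin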
Direction: log2 vehicle/camptothecin viability: higher = stronger sensitisation to camptothecin
Call rule: 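Each gene scored by redundant siRNA activity (RSA) over its individual siRNA ratios; a gene is called active at p < 0.001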

log2 vehicle/camptothecin viability, by gene knocked down and reagent
CASP14: SID164448915 0.882 inactive; SID164448916 -0.687 inactive; SID164448919 -0.179 inactive
PLA2G2F: SID164503341 -0.387 inactive; SID164503343 -0.148 inactive; SID164503344 -0.313 inactive; SID164503345 0.905 inactive
GMEB2: SID164459248 -0.623 inactive; SID164459250 0.0469 inactive; SID164459251 -0.281 inactive; SID174315915 -0.0852 inactive
SPAG5: SID164412345 -0.182 inactive; SID164412347 0.339 inactive; SID164412348 -0.0905 inactive; SID164412349 0.722 inactive
FKBP5: SID164364925 0.533 inactive; SID164364926 -0.247 inactive; SID164364931 -0.569 inactive; SID164364932 -0.016 inactive
HOXD12: SID164369882 -0.212 inactive; SID164369883 0.163 inactive; SID164369885 -0.4 inactive; SID164369886 -0.309 inactive
SEZ6L2: SID164460332 0.223 inactive; SID164460337 -0.267 inactive; SID164460341 -0.0927 inactive
UBQLN2: SID164468865 -0.167 inactive; SID164468867 -0.168 inactive; SID164468868 -0.176 inactive
